We go through one molecule from publication PMC11804575.

Protein sequences, listed by entry. Tags and fused reporters are not part of them. Lines headed by an entry give the natural chain unless they say otherwise; changes in a name come on top. Chains listed by the source or under a name are the forms on record and can include a tag or linker.
UniProt P15056: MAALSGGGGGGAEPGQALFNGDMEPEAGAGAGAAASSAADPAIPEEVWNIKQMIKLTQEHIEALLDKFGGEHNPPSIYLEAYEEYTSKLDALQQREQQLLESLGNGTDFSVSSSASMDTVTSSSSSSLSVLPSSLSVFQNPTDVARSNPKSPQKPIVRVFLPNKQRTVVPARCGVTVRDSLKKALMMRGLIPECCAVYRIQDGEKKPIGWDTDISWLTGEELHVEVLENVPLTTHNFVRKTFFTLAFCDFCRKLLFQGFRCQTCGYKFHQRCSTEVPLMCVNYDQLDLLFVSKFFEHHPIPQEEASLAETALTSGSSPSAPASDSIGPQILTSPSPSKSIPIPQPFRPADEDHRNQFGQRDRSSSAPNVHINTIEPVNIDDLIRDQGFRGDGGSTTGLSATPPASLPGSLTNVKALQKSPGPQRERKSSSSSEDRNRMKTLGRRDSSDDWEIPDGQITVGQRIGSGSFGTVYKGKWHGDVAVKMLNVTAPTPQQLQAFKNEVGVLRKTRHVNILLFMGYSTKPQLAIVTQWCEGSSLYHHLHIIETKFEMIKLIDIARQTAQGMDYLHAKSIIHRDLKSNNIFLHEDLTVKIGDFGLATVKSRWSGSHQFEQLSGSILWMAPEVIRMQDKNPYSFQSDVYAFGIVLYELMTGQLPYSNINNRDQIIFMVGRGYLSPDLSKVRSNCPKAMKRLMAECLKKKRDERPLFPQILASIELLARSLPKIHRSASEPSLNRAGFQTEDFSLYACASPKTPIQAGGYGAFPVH
BRAF^ΔNVTAP (P15056, form named): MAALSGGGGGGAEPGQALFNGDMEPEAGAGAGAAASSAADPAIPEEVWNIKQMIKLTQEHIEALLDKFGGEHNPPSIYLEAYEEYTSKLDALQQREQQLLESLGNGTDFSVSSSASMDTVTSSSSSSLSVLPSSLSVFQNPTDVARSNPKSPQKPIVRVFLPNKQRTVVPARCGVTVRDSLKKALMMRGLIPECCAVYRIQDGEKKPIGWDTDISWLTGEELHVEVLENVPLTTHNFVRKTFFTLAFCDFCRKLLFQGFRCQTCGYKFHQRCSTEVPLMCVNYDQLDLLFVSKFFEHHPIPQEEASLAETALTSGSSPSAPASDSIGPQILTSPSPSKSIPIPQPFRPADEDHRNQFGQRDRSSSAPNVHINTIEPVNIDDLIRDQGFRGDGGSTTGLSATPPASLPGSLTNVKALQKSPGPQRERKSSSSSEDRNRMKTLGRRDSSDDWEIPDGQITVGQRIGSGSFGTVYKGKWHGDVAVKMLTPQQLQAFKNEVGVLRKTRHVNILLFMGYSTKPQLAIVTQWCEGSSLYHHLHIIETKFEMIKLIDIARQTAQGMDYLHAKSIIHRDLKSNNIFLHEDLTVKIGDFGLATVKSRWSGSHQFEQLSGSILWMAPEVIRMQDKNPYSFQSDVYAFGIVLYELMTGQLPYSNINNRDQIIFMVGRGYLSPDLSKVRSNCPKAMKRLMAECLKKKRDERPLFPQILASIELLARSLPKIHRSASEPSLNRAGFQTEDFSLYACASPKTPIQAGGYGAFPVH

Results are given in words; binding and its absence hold for the method and conditions named. In cells and extracts the contact can be indirect. Some entries that bind do so weakly or less than the wild type.

The target of one assay is BRAF^V600E (human) (UniProt P15056). Briefly: co-IP; HEK293T expressing HA-BRAF proteins, cultured with the HSP90 inhibitor XL888 (1 μM) or vehicle for 4 hours before lysis; anti-HA precipitation, SDS-PAGE, blot for HSP90 and CDC37; both called XL888-sensitive interactors.
The next assay deals with BRAF^ΔNVTAP (human) (UniProt P15056). The assay is described as above.

B1: CDC37 (protein, UniProt Q16543 1-378)
chain: MVDYSVWDHIEVSDDEDETHPNIDTASLFRWRHQARVERMEQFQKEKEELDRGCRECKRKVAECQRKLKELEVAEGGKAELERLQAEAQQLRKEERSWEQKLEEMRKKEKSMPWNVDTLSKDGFSKSMVNTKPEKTEEDSEEVREQKHKTFVEKYEKQIKHFGMLRRWDDSQKYLSDNVHLVCEETANYLVIWCIDLEVEEKCALMEQVAHQTIVMQFILELAKSLKVDPRACFRQFFTKIKTADRQYMEGFNDELEAFKERVRGRAKLRIEKAMKEYEEEERKKRLGPGGLDPVEVYESLPEELQKCFDVKDVQMLQDAISKMDPTDAKYHMQRCIDSGLWVPNSKASEAKEGEEAGPGDPLLEAVPKTGDEKDVSV
Turning to B1, the binding result with BRAF^V600E (human) and in the assay with BRAF^ΔNVTAP (human) was “binds” throughout.
